# Test results as given in patent EP2899531B1, “Method for detecting a chiral analytes” (Jacobs University Bremen gGmbH, priority 2013, dated 2015).
# Values joined by “and” are separate entries in the source; they are usually repeats but may differ in a detail not shown here. Identical values can stand only once. Peptide text beside a SMILES is read from it.
# Experiments:
# CB8-MDPP = assay: Induced circular dichroism (ICD) spectra of analytes with CB8-MDPP receptor complex; details: CB8-MDPP (20 µM), H2O, 22 °C; long-wavelength maxima (>300 nm) in ICD spectra
# CB8-MDAP = assay: Induced circular dichroism (ICD) spectra of analytes with CB8-MDAP receptor complex; details: CB8-MDAP (100 µM), H2O, 22 °C; long-wavelength maxima (>300 nm) in ICD spectra
smiles,measurement,setting,value
N[C@@H](Cc1ccccc1)C(=O)NCC(=O)O [PheGly] (H-Phe-Gly-OH),λ max,CB8-MDPP,324 nm and 277 nm
same,λ max,CB8-MDAP,347 nm and 317 nm
N[C@@H](CC(=O)O)C(=O)N[C@@H](Cc1ccccc1)C(=O)O [AspPhe] (H-Asp-Phe-OH),λ max,CB8-MDPP,446 nm and 329 nm
same,λ max,CB8-MDAP,425 nm and 322 nm
NCC(=O)N[C@@H](Cc1c[nH]c2ccccc12)C(=O)NCC(=O)O [GlyTrpGly] (H-Gly-Trp-Gly-OH),λ max,CB8-MDPP,509 nm and 437 nm and 376 nm
N[C@@H](Cc1c[nH]c2ccccc12)C(=O)N1CCC[C@H]1C(=O)O [TrpPro] (H-Trp-Pro-OH),λ max,CB8-MDPP,510 nm and 430 nm and 369 nm
same,λ max,CB8-MDAP,410 nm
N[C@@H](Cc1c[nH]c2ccccc12)C(=O)NCC(=O)NCC(=O)O [TrpGlyGly] (H-Trp-Gly-Gly-OH),λ max,CB8-MDPP,510 nm and 447 nm and 380 nm
CC(C)[C@H](NC(=O)[C@@H](N)Cc1ccccc1)C(=O)O [PheVal] (H-Phe-Val-OH),λ max,CB8-MDPP,446 nm and 323 nm
same,λ max,CB8-MDAP,347 nm and 317 nm
N[C@@H](CCC(=O)O)C(=O)N[C@@H](Cc1c[nH]c2ccccc12)C(=O)O [GluTrp] (H-Glu-Trp-OH),λ max,CB8-MDPP,512 nm and 447 nm and 383 nm
same,λ max,CB8-MDAP,418 nm and 380 nm and 340 nm
